Measurements: PubChem BioAssay AID2685 (National Center for Advancing Translational Sciences (NCATS), 2010)
This is one part of the list. Shown are side measurements of this screen, not its main read-out; they come without a call. The list favours compounds with an active or inconclusive main result. Words in brackets tell the shape of the fitted curve; partial curves, single points and poor fits give uncertain potencies.

Test: qHTS Assay for Lipid Storage Modulators in Drosophila S3 Cells;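 for cell number change: cells counted by Cell Tracker Red CMTPX staining in the red channel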
Conditions: BODIPY lipid droplet fluorescence, 18-24 h; for cell number change: measured here: cell count max response, cells fed with added oleic acid
Outline: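 Drosophila S3 cells loaded with oleic acid (400 uM, as added) and compounds at several concentrations; lipid droplets imaged by 488-nm laser-scanning cytometry, 500–530 nm intensity and object ratio to cell channel. Percent activity normalized to 20 uM Triacsin C.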

[1] = measured here: lipid fluorescence (Fed channel) AC50, cells fed with added oleic acid
[2] = measured here: cell number channel AC50, cells fed with added oleic acid

SMILES | cell number change [%] | AC50 [1] | AC50 [2]
Cc1cc(C(=O)Nc2nncs2)oc1C | 10.2 | 10.3 µM [rising, partial curve] | 
COc1ccc(CSc2cccc3cccnc23)cc1[N+](=O)[O-] | -5.06 | 0.0184 µM [rising, full curve] | 
Cc1ccccc1Cn1c(CN2CCc3ccccc3C2)nc2c1c(=O)n(C)c(=O)n2C | 7.1 | 1.64 µM [rising, full curve, poor fit] | 
CC1CCCCC12NC(=O)N(CC(=O)Nc1cccnc1Cl)C2=O (stereo unspecified) |  |  | 6.51 µM [rising, single point]
Nn1c(SCC(=O)Nc2ccc(F)c(F)c2)nnc1C1CCCCC1 |  |  | 6.51 µM [rising, single point]
C#CCN1C(=O)S/C(=C/c2cc(C)n(CC)c2C)C1=O | -11.6 | 0.0731 µM [falling, full curve, poor fit] | 
O=C(O)Cc1sc(Nc2ccc(Cl)cc2)nc1-c1cccs1 | -39.9 | 4.11 µM [falling, single point] | 29.1 µM [falling, single point]
CC(NC(=O)c1cc(S(=O)(=O)N2CCOCC2)ccc1F)c1ccc(-n2ccnc2)cc1 (stereo unspecified) | 36.6 | 0.461 µM [rising, full curve] | 0.164 µM [rising, full curve, poor fit]
COc1ccc(-c2c(C)c3ccc(O)cc3oc2=O)cc1 |  |  | 0.0326 µM [rising, full curve, poor fit]
COc1ccc(C(=O)COc2ccc3ccc(=O)oc3c2)c(OC)c1 | -38.4 | 13 µM [falling, partial curve] | 8.2 µM [falling, partial curve]
Cc1ccc(CNS(=O)(=O)c2ccc([N+](=O)[O-])cc2)cc1 | 15 | 0.651 µM [rising, full curve] | 
O=C(COC(=O)C1(c2ccc(F)cc2)CCCC1)N1CCNC1=O | -7.21 | 0.517 µM [falling, full curve] | 0.461 µM [falling, full curve]
COCCCNc1nc2ccccc2nc1NS(=O)(=O)c1ccc(C)c(C)c1 | 34.9 |  | 14.6 µM [rising, partial curve, poor fit]
CC(C)Cc1nc2sc3c(c2c(=O)n1N)CC(C)(C)OC3 | -31.1 | 29.1 µM [falling, single point] | 32.6 µM [falling, single point]
CCN(CC)C(=O)Cn1cnc2sc(C)c(S(=O)(=O)N3CCC(C)CC3)c2c1=O | -7.66 |  | 
Cc1cccn2c(=O)nc(SCC(=O)N3N=C(c4cccs4)CC3c3ccc(F)cc3)nc12 (stereo unspecified) |  | 0.0058 µM [falling, full curve, poor fit] | 
COc1ccc(C=O)cc1OC(=O)N1CCOCC1 | -0.901 | 1.3 µM [falling, full curve] | 
Cc1cc(C(=O)OCC(N)=O)c(C)n1-c1ccccc1 | 27.4 |  | 
CCOC(=O)CN1CC23C=CC(O2)C(C(=O)NCc2ccc(C)cc2)C3C1=O (stereo unspecified) | -9.16 | 0.092 µM [rising, full curve, poor fit] | 
Cc1snc(SCc2ccc(Cl)cc2)c1C#N | 13.9 | 16.4 µM [rising, partial curve] | 
CCn1c(SCC(=O)n2nc(C)cc2C)nnc1-c1ccc2c(c1)OCO2 | -9.94 | 0.517 µM [falling, partial curve] | 

SMILES | cell number change [%] | AC50 [1] | AC50 [2]
CCN(CC)S(=O)(=O)c1ccc(-c2nnc(SCc3nnc(-c4ccc(C)cc4)o3)n2CC)cc1 | -3.32 | 0.58 µM [rising, single point] | 
COc1cccc(C2C(C(=O)c3ccc(C)o3)=C(O)C(=O)N2c2cc(C)on2)c1 (stereo unspecified) | 7.31 |  | 
CC(=O)Nc1ccc2c(c1)N(S(=O)(=O)c1cccs1)CCC2 | -16.8 |  | 1.84 µM [rising, partial curve]
COc1ccccc1NC(=O)CSc1nc(C)c2c(c1C#N)CCCC2 | 58.6 |  | 29.1 µM [rising, single point]
COc1ccccc1CNC(=O)Cn1nnnc1CN(C)C(C)C | 16.8 | 5.17 µM [rising, full curve] | 
Cn1cc(/C=C2/SC(=O)N(CC(=O)Nc3ccc4c(c3)OCO4)C2=O)c2ccccc21 | 18.7 | 32.6 µM [falling, single point] | 
C=CCn1c(=O)c(C(=O)Nc2ccccc2C)c(O)c2ccccc21 |  | 23.1 µM [falling, partial curve] | 
Nc1cc(N)nc(SCc2ccccc2)n1 |  | 6.51 µM [rising, single point] | 
COc1ccc(NC(=O)C(c2ccc(C)cc2)N(C)C(=O)CNC(C)=O)cc1 (stereo unspecified) | 3.06 | 23.1 µM [rising, single point] | 
Cc1cccc(NC(=O)/C(C#N)=C/c2ccccc2Cl)n1 | -2.13 | 3.66 µM [falling, partial curve] | 
CCC(C)NC(=O)C1CCN(S(=O)(=O)c2ccc3c(c2)CC(C)N3C(C)=O)CC1 (stereo unspecified) | 14.1 | 9.2 µM [falling, single point] | 
c1ccc(C2c3[nH]c4ccccc4c3CCN2Cc2cccn2-c2cccnc2)nc1 (stereo unspecified) | 5.34 | 0.0164 µM [rising, full curve, poor fit] | 
CC1CCc2c(sc(NC(=O)COC(=O)c3ccc(O)cc3)c2C#N)C1 (stereo unspecified) | 21.8 |  | 0.092 µM [rising, full curve, poor fit]
CCC1=NN2C(=N)/C(=C\c3cccn3-c3cccc(Cl)c3)C(=O)N=C2S1 | -53.6 |  | 
O=C(CCNS(=O)(=O)c1ccc(Br)cc1)NC1CCC(O)CC1 (stereo unspecified) | 36 | 23.1 µM [rising, partial curve, poor fit] | 0.82 µM [rising, full curve, poor fit]
COc1ccc(C(C(=O)NC2CCCC2)N(Cc2ccccc2)C(=O)c2nsc(Cl)c2Cl)cc1 (stereo unspecified) | -29.5 | 0.13 µM [falling, full curve, poor fit] | 
O=C(Nc1ccc(S(=O)(=O)N2CCCCC2)cc1)c1ccccc1Cl | -15.9 | 0.103 µM [falling, full curve, poor fit] | 
CC1CCN(S(=O)(=O)c2ccc3c(c2)N(CC(=O)NCCCOC(C)C)C(=O)CO3)CC1 | -7.65 |  | 
O=C(Cn1c(=O)oc2ccc(Cl)cc21)Nc1ccon1 | 21.4 |  | 
CCn1cc(C(=O)NCc2cccs2)c(=O)c2ccc(C)nc21 | -5.42 | 6.51 µM [falling, single point] | 0.00461 µM [falling, full curve, poor fit]
COc1cccc(NC(=O)c2ccc3c(c2)N(CC(=O)N2CCOCC2)C(=O)C(C)(C)O3)c1 | 1.39 | 16.4 µM [rising, partial curve] | 

Record cards (already shown):
C#CCN1C(=O)S/C(=C/c2cc(C)n(CC)c2C)C1=O in the list: cell number change [%]: -11.6; AC50 [1]: 0.0731 µM [falling, full curve, poor fit]
COc1ccc(C=O)cc1OC(=O)N1CCOCC1 in the list: cell number change [%]: -0.901; AC50 [1]: 1.3 µM [falling, full curve]

(next part)

SMILES | cell number change [%] | AC50 [1] | AC50 [2]
CC(=O)N1CCN(CC(O)COc2ccc(OCc3ccccc3)cc2)CC1 (stereo unspecified) | -4.15 | 13 µM [rising, single point] | 
Cc1[nH]c(=O)[nH]c(=O)c1/C=N\NC(=O)CCc1ccc(OC(C)C)cc1 | 21.2 |  | 
O=[N+]([O-])c1nn(-c2ccc(Cl)cc2)n(O)c1=NCc1cccnc1 | 64.5 |  | 29.1 µM [rising, single point]
CCCCOc1ccc(C(=O)NCC(=O)N2CCN(C(=O)c3ccco3)CC2)cc1 | -21.3 |  | 
O=C(COc1ccccc1)NC1CCS(=O)(=O)C1 (stereo unspecified) | -10.7 | 1.16 µM [falling, full curve, poor fit] | 
CCCCN(Cc1ccccc1)C(=O)c1cnc2n(c1=O)CCS2 | -0.498 | 23.1 µM [rising, single point] | 
CCOc1ccc2c(c1)-c1c(ssc1=S)C(C)(C)N2 | -92.5 |  | 11.6 µM [falling, partial curve]
CC(C)CCn1nnnc1C(c1ccccc1F)N1CCC(C(N)=O)CC1 (stereo unspecified) | 12.4 | 29.1 µM [falling, single point] | 
Cc1ccc(-n2c(NN)nc3ccccc3c2=O)c(C)c1 |  | 18.4 µM [rising, partial curve] | 
O=C(CSc1ncnc2ccccc12)c1cccs1 | 31.9 | 5.17 µM [rising, full curve] | 1.03 µM [rising, partial curve, poor fit]
Cc1ccc([N+](=O)[O-])cc1Nc1nc(N2CCCC2)nc(N2CCCC2)n1 | 12 | 6.51 µM [falling, single point] | 
CN(Cc1cnccn1)C(=O)CC1C(=O)NCCN1Cc1c(F)cccc1Cl (stereo unspecified) | 12.4 |  | 
CN(CC(=O)Nc1ccc2c(c1)OCCO2)S(=O)(=O)c1ccc(Br)s1 |  | 6.51 µM [falling, single point] | 
CN(Cc1ccccc1)S(=O)(=O)c1ccc2[nH]c(=O)oc2c1 | -3.29 |  | 
CC(CCc1ccccc1)NC(=O)C(Cc1ccccc1)NS(=O)(=O)c1cccs1 (stereo unspecified) | 39.6 |  | 9.2 µM [rising, partial curve, poor fit]
CCN(c1cccc(C)c1)S(=O)(=O)c1ccc2[nH]c(=O)c(=O)[nH]c2c1 |  | 20.6 µM [falling, partial curve] | 
O=C(COC(=O)c1ccc2c(=O)n3c(nc2c1)CCC3)Nc1ccc(OC(F)F)cc1 | 12.3 |  | 
COc1ccc(Cc2nc3ccc(C(=O)N(C)Cc4cc(C)[nH]n4)cc3o2)cc1OC | 3.67 |  | 
COc1cc(/C=N/NC(=O)CSc2nc3ccccc3n2C)cc(OC)c1OC |  | 0.411 µM [rising, single point] | 
O=[N+]([O-])c1ccc2cn(-c3ccccc3)nc2c1 |  | 32.6 µM [falling, single point] | 
CCOc1ccc(NC(=O)CN(C)C(=O)c2csc3c2CCCC3)cc1OCC | 4.54 | 0.651 µM [rising, partial curve] | 

Arranged by number of heavy atoms (high to low): part of the list above.
SMILES | cell number change [%] | AC50 [1] | AC50 [2]
COc1cccc(NC(=O)c2ccc3c(c2)N(CC(=O)N2CCOCC2)C(=O)C(C)(C)O3)c1 | 1.39 | 16.4 µM [rising, partial curve] | 
COc1ccc(Cc2nc3ccc(C(=O)N(C)Cc4cc(C)[nH]n4)cc3o2)cc1OC | 3.67 |  | 
CC(CCc1ccccc1)NC(=O)C(Cc1ccccc1)NS(=O)(=O)c1cccs1 (stereo unspecified) | 39.6 |  | 9.2 µM [rising, partial curve, poor fit]
COc1cc(/C=N/NC(=O)CSc2nc3ccccc3n2C)cc(OC)c1OC |  | 0.411 µM [rising, single point] | 
CC(=O)N1CCN(CC(O)COc2ccc(OCc3ccccc3)cc2)CC1 (stereo unspecified) | -4.15 | 13 µM [rising, single point] | 
CC(C)CCn1nnnc1C(c1ccccc1F)N1CCC(C(N)=O)CC1 (stereo unspecified) | 12.4 | 29.1 µM [falling, single point] | 
Cc1[nH]c(=O)[nH]c(=O)c1/C=N\NC(=O)CCc1ccc(OC(C)C)cc1 | 21.2 |  | 
CN(CC(=O)Nc1ccc2c(c1)OCCO2)S(=O)(=O)c1ccc(Br)s1 |  | 6.51 µM [falling, single point] | 
CCCCN(Cc1ccccc1)C(=O)c1cnc2n(c1=O)CCS2 | -0.498 | 23.1 µM [rising, single point] | 
CN(Cc1ccccc1)S(=O)(=O)c1ccc2[nH]c(=O)oc2c1 | -3.29 |  | 
Cc1ccc(-n2c(NN)nc3ccccc3c2=O)c(C)c1 |  | 18.4 µM [rising, partial curve] | 
O=C(CSc1ncnc2ccccc12)c1cccs1 | 31.9 | 5.17 µM [rising, full curve] | 1.03 µM [rising, partial curve, poor fit]
O=C(COc1ccccc1)NC1CCS(=O)(=O)C1 (stereo unspecified) | -10.7 | 1.16 µM [falling, full curve, poor fit] | 
